Source: doi:10.1101/2020.04.03.023721
No constants are given. Whether binding was seen depends on the method and setting. In cells and extracts the contact can be indirect. For part of these data: Sequences can lack the tags named with a protein.

Sequences of proteins named here, by UniProt entry; tags and fusion partners are left off. A change or cut given only in a name is not applied to a line headed by its entry. Residues count along the entry.
UniProt Q96P20, 1-93: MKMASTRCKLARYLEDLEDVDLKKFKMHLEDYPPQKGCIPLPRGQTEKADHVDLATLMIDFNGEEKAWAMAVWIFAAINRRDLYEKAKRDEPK
UniProt Q9ULZ3, whole entry: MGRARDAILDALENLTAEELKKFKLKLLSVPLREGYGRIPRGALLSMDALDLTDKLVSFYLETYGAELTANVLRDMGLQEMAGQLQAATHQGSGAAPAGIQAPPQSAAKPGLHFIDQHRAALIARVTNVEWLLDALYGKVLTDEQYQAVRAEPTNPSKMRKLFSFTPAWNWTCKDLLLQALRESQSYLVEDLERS
UniProt P49023, whole entry: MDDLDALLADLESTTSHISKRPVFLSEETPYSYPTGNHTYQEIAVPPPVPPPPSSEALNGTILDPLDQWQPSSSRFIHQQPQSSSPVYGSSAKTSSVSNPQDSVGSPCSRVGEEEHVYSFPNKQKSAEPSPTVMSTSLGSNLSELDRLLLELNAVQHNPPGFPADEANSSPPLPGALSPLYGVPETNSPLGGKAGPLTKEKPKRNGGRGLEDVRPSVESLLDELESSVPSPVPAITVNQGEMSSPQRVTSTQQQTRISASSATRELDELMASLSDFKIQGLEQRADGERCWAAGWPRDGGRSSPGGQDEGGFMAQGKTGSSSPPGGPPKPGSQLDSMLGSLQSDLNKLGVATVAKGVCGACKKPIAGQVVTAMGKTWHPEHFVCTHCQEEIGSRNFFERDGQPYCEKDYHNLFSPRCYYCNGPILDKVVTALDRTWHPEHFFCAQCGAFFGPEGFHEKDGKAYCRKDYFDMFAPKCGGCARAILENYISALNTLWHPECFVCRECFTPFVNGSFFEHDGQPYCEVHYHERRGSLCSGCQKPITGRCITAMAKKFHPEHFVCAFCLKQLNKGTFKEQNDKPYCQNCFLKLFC

Assays:
Assay in all cases: co-IP
[1] = target: Flag-PYRIN (human) (UniProt Q96P20)
[2] = target: T1, Flag-P2X7(32-595) (UniProt Q99572)
T1 sequence: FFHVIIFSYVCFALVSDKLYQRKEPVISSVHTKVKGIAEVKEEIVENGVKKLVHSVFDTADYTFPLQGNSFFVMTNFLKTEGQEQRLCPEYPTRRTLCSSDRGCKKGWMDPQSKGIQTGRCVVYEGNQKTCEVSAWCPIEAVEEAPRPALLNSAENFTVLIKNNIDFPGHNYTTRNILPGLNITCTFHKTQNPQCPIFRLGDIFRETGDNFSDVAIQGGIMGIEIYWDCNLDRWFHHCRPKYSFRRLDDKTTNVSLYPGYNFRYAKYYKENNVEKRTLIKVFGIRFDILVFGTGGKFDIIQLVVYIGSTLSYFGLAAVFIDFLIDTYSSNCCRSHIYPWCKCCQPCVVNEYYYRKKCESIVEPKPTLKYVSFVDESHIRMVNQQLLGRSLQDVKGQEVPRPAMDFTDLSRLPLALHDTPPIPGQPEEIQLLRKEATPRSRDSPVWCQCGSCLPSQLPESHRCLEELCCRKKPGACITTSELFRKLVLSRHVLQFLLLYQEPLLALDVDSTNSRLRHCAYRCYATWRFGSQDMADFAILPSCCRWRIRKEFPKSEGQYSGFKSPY

[3] = target: Flag-ASC (human) (UniProt Q9ULZ3)
[4] = target: T2, Flag-P2X7(36-595) (UniProt Q99572)
T2 sequence: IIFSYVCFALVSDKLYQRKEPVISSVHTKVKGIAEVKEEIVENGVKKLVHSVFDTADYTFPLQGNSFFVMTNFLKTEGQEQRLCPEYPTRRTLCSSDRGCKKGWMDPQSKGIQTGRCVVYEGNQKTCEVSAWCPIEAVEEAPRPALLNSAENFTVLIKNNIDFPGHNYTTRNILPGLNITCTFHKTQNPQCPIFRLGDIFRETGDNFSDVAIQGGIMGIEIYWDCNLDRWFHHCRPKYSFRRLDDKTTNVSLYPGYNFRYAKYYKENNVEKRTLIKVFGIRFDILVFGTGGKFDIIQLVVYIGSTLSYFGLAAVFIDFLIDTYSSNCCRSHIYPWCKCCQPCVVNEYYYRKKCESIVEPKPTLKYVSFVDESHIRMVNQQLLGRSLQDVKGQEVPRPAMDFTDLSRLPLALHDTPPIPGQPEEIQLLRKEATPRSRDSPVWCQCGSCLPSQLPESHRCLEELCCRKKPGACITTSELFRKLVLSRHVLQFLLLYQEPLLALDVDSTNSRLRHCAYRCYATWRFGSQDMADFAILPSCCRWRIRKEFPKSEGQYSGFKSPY

[5] = target: T3, Flag-P2X7(K30A) (UniProt Q99572)
T3 sequence: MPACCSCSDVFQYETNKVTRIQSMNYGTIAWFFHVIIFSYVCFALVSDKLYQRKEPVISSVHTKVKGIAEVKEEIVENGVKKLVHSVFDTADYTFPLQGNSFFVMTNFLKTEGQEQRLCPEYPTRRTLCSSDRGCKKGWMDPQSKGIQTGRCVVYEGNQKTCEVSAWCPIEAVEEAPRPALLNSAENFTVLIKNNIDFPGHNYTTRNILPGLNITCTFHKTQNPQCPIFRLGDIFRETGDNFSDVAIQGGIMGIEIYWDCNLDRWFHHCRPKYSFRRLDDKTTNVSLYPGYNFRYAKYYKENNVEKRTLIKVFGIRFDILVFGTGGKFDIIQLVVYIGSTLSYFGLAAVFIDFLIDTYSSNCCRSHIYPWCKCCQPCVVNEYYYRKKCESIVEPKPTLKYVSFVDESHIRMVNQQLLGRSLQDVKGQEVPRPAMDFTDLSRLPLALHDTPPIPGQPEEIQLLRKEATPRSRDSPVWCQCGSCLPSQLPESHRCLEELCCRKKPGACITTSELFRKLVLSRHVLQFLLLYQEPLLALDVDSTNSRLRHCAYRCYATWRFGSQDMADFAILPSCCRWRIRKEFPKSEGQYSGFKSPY

[6] = target: T4, Flag-P2X7(356-595) (UniProt Q99572)
T4 sequence: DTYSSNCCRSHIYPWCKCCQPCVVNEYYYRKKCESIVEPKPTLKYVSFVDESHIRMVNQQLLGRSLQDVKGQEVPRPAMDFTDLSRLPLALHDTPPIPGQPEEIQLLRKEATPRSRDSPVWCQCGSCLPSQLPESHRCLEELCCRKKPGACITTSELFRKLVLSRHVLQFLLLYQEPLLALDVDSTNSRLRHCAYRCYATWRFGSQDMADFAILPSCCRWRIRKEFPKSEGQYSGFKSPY

Measured: binding

HA-Paxillin (from UniProt P49023 1-591)
no binding: all assays above
